# Screening data, single-dose tests

Chains of the proteins cited; added tags and fusions are not shown. Residues count along the entry.
UniProt A4I591, 1-473: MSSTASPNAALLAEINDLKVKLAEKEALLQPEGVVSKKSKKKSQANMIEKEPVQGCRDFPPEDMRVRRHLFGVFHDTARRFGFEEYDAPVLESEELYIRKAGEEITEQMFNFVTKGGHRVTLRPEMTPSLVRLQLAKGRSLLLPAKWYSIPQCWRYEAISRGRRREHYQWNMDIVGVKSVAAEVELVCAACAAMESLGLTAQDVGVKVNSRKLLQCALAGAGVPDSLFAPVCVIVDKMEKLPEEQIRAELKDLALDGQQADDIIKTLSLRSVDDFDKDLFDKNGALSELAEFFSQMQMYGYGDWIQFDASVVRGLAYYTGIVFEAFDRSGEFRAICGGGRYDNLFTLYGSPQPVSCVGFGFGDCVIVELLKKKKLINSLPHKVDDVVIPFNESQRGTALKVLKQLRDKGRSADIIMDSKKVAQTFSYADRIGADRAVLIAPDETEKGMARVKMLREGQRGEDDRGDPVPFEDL
UniProt P9WFT3, whole entry: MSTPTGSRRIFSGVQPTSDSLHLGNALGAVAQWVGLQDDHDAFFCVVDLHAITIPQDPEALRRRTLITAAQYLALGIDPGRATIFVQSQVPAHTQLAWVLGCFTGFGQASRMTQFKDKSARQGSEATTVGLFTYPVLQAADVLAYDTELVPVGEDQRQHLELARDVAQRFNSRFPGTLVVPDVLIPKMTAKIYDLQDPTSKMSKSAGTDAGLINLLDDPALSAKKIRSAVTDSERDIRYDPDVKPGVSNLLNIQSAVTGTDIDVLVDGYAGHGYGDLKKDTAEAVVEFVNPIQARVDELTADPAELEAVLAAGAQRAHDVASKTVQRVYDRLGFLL
UniProt P9WNZ1, whole entry: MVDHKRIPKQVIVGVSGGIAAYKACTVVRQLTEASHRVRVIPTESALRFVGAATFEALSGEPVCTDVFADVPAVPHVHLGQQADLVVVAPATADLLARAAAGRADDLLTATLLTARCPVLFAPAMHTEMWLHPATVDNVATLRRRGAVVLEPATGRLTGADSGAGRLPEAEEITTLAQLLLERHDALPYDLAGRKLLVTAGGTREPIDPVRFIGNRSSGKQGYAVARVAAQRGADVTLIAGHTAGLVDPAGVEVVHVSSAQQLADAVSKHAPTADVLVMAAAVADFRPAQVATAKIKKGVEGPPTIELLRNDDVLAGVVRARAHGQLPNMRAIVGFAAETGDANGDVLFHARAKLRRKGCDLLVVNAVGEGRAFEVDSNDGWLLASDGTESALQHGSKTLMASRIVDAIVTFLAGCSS

The values are deposited in ChEMBL (CHEMBL3988442, “University of Dundee, Small-Polar-MMV Screening Library” (2021)).

LiHisRS: 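Enzyme assay of histidyl-tRNA synthetase; the read-out is not stated. Target: Histidine-tRNA ligase, Leishmania infantum (UniProt A4I591). Concentration: 30 µM. Higher reads as stronger inhibition (inferred: compounds with an IC50 in retests scored well above the rest). The assay is labelled LdHisRS but filed under L. infantum. Size under these conditions: about 69,000 compounds, about 410 of them at 50% or above in at least one test.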
MtTrpRS: 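Tryptophan-tRNA ligase, Mycobacterium tuberculosis (UniProt P9WFT3). Enzyme assay of tryptophanyl-tRNA synthetase; the read-out is not stated. Tested at 10 µM. Direction is not recorded; retested compounds ran higher, which suggests that high means inhibition. About 65,000 compounds were tested under these conditions; 0.098% (about 64) showed 50% or more at least once.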
CoaBC: 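Coenzyme A biosynthesis protein CoaBC, Mycobacterium tuberculosis (UniProt P9WNZ1). Enzyme assay of CoaBC with a phosphate dye (Biomol Green) read at 650 nm. Concentration: 30 µM. Direction is inferred from only a few compounds that gave an IC50; most scored high, so higher reads as stronger inhibition. Most strong results did not repeat in a second test. Size under these conditions: about 67,000 compounds, about 40 of them at 50% or above in at least one test.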

Results are given as percent effect.
How 0% and 100% were set is not recorded. Most values in the screen are low, and negative values occur.
Compounds were drawn at random from those tested, without regard to their results.
A dash means the value is not listed here; it may have been measured.

Compound | LiHisRS | MtTrpRS | CoaBC
Fc1ccc(C2CN(c3ncnc4[nH]ncc34)CCO2)cc1 (stereo not shown) | 25 | -1.492 | 1.392
CC(NC(=O)NCCCn1ccnc1)c1ccc2c(c1)OCCCO2 (stereo not shown) | 0 | -3.013 | -15.51
CCc1nc(CN2CCCC2c2c(C)nn(C)c2OC)no1 (stereo not shown) | 14.78 | -1.917 | 6.997
COCCC(=O)N1CCC(c2ccc3c(NC(C)C)n[nH]c3n2)C1 (stereo not shown) | 10 | -8.104 | 2.913
CCS(=O)(=O)N1CCC[C@]2(C(=O)N(C)C)CN(c3ccccn3)C[C@@H]2C1 | 26.42 | -1.994 | 4.695
CCn1nnc2c1C(COCCN(C)C)CN(c1nncs1)C2 (stereo not shown) | 10.53 | 29.53 | 4.44
CN(CCN1CCCCCC1)C(=O)c1cc(CN2CCC(O)CC2)on1 | 28.85 | 0.6415 | -1.919
Cc1ncsc1CN1CCn2nc(CCC(=O)N3CCCC3)cc2C1 | 20 | 3.422 | 1.777
O=C(NCc1ccccc1F)N1CCC(C2OCCO2)CC1 | 14.29 | -4.555 | 3.914
Cc1nn2cnnc2c(C)c1CCC(=O)Nc1nnc(C(C)C)s1 | 14.29 | 1.386 | -4.009
Cc1ncncc1C(=O)N1CCCC(n2ccnc2C)C1 (stereo not shown) | 12.33 | 2.375 | 4.084
CC1CCc2c(c3ccccc3[nH]c2=O)O1 (stereo not shown) | 10.34 | 2.365 | 14.77
CCOC(=O)N1CCC2(CCCN(C3CCOCC3)C2=O)C1 (stereo not shown) | 11.7 | -1.119 | 6.624
O=C(c1nnn(-c2ccc(C(F)(F)F)cc2)n1)N1CCC(O)CC1 | 10.43 | -2.204 | 4.44
Cc1nc(CN2CCC(CNC(=O)CCC3CCCC3)CC2)oc1C | 18.03 | -1.671 | 0
Cc1sc2c(C3CCCNC3)nc(Nc3cccc(F)c3)n2c1C (stereo not shown) | 12.95 | -5.339 | 7.895
CC(NC1(CNC(=O)CC2CCCC2)CCOCC1)c1ccccc1 (stereo not shown) | 22.58 | 4.009 | 3.045
O=C(NCCn1nc2ccccn2c1=O)c1scnc1Cl | 20.18 | -0.4838 | 7.347
Nc1nccnc1C1CN(C(=O)c2cnc(C3CC3)nc2)CCO1 (stereo not shown) | -7.368 | -0.6377 | 1.46
CC(=O)c1ccc(C(=O)N2C[C@@H]3CC[C@H](C2)N(Cc2ccccc2)C3)s1 | 30.14 | -1.487 | -21.36
CC(=O)N1C[C@@H]2CC[C@H](C1)N(S(=O)(=O)c1cc(F)ccc1C)C2 | 8.197 | 2.807 | 2.033
CCS(=O)(=O)N1CCC2(CCCN(Cc3ccc(F)c(F)c3)C2=O)C1 (stereo not shown) | 3.2 | -1.806 | -2.683
COc1ccccc1OCC(=O)NS(=O)(=O)c1ccc(F)cc1F | 17.81 | -0.7936 | 5.128
CCCC(C)C(=O)Nc1ccc(OC)nc1N1CCN(C(C)=O)CC1 (stereo not shown) | -2.679 | -4.956 | -5.159
Cc1ccccc1NC(=O)CCNC(=O)c1ccoc1 | 20 | 0.8043 | 6.958
CC(=O)c1cccc(NC(=O)N(CC(F)F)C2CC2)c1 | 22.32 | 4.272 | 8.678
Cc1ccc2nc(C)cc(C(=O)NC(C)c3nnn[nH]3)c2c1 (stereo not shown) | 12.9 | 1.282 | -0.2457
CCN(Cc1nccn1C)C(=O)c1ccc(NCc2ccccc2)nc1 | 12.5 | -0.8683 | -3.354
CCS(=O)(=O)c1ccccc1N1CCC(NC(C)=O)CC1 | 15.38 | -1.652 | 3.373
OC1(CN2CCOC(Cn3cccn3)C2)CCCCC1 (stereo not shown) | 17.09 | -0.5111 | -10.99
CCN1CC(O)CN(C(=O)c2ccc(SC)cc2)CC1=O (stereo not shown) | 14.29 | - | 2.179
O=C(CCOc1ccc(Br)cc1)N1CCN(c2cnccn2)CC1 | 6.838 | 19.48 | -7.775
COc1ccc(OCc2cc(C(=O)N3CC=CC3)n[nH]2)c(Cl)c1 | 9.434 | -3.627 | 9.474
COc1ccccc1OC1CN(C(=O)C(c2ccccc2F)N(C)C)C1 (stereo not shown) | 13.43 | -2.821 | -29.72
O=C(c1ccnnc1)N1C[C@H](OCC2CCOCC2)[C@H]2OCCC[C@H]21 | -0.885 | -0.4188 | 1.486
CC(=O)NC[C@]1(O)CCN(C(=O)c2ccc(C)c(F)c2)C[C@H]1O | 15.94 | - | 0
Cc1cccc(CNC2(CCO)CCOCC2)c1C | 0 | -4.231 | -
Cc1nc(-c2ccccc2)ccc1C(=O)N1CCN(CCO)CC1 | 13.16 | -4.678 | 4.839
Cc1cc(COC(=O)[C@@H]2Cc3ccccc3CN2S(C)(=O)=O)no1 | 3.333 | -0.9266 | -1.284
CCC1CN(C(=O)c2ccccc2N(C)C)CCN1C(C)C (stereo not shown) | 12.33 | 2.651 | -7.015
CCn1ncc(CNC(=O)c2cn(CCC3CCCCN3)nn2)c1C (stereo not shown) | 13.33 | -5.348 | -2.784
Cc1ccc(-c2ncc(C(=O)N3CCCC(CCN)C3)c(O)n2)cc1 (stereo not shown) | 24.18 | -1.06 | 1.098
CCSc1nsc(NC(=O)COc2ccc3c(c2)OCO3)n1 | 0 | -8.144 | 7.16
CCCN1CC2(CCN(C)CC2)CC1C(=O)NCCn1cc(C)cn1 (stereo not shown) | 14.88 | 0.1564 | 4.37
COCCn1cnc2ccc(NC(=O)c3ccccn3)cc2c1=O | 8.696 | -2.733 | -2.309
CC(C)c1nnc2n1CCN(C(=O)c1cccc(OCC(N)=O)c1)C2 | 4.959 | -3.336 | 1.512
Cc1ccn(-c2ccc(N3CCN(Cc4ccccn4)CC3)nn2)n1 | 19.48 | -2.726 | 8.544
CC(OCC1CC1)C(=O)N1CCCN(Cc2nccn2C)CC1 (stereo not shown) | 13.51 | 1.657 | 2.089

6 of the entries, repeated:

Compound,LiHisRS,MtTrpRS,CoaBC
Cc1cccc(CNC2(CCO)CCOCC2)c1C,0,-4.231,-
OC1(CN2CCOC(Cn3cccn3)C2)CCCCC1 (stereo not shown),17.09,-0.5111,-10.99
CCSc1nsc(NC(=O)COc2ccc3c(c2)OCO3)n1,0,-8.144,7.16
Fc1ccc(C2CN(c3ncnc4[nH]ncc34)CCO2)cc1 (stereo not shown),25,-1.492,1.392
Cc1ncncc1C(=O)N1CCCC(n2ccnc2C)C1 (stereo not shown),12.33,2.375,4.084
CCC1CN(C(=O)c2ccccc2N(C)C)CCN1C(C)C (stereo not shown),12.33,2.651,-7.015